Measurements as given in article PMC12559223 (Nature Communications, 2025).

Test: peptide synthesis
Details: whole synthesis

Row | Sequence | final HPLC purity
1 | YADAGKSARDVFTKG | >98%
2 | YADLGKSARAVFTKG | >98%
3 | YADLGASARDVFTKG | 95%
4 | YADLGKSARDAFTKG | 98%
5 | YADLGKSAADVFTKG | 95%
6 | YAALGKSARDVFTKG | >98%
7 | AADLGKSARDVFTKG | >98%
8 | YADLGKSARDVATKG | 96%
9 | YADLGKSARDVFAKG | 98%
10 | YADLAKSARDVFTKG | >98%
11 | YADLGKAARDVFTKG | >98%

Where a sequence shows no end group, the ends are not given.
